Reference: US20240360226A1 (AstraZeneca / MedImmune, published 2024)
These are yes or no findings as the source states them, for the method shown. Some results given as binding are weak or reduced against the parent protein; the word gives no strength.

What was measured:
[1] = molecular target: Mouse EGFR (recombinant, soluble monomeric) (mouse) (UniProt Q01279); assay: ELISA, antigen coated at 1 ug/mL, anti-human Fab-HRP detection, A450
[2] = molecular target: Cynomolgus monkey EGFR (recombinant, soluble monomeric) (cynomolgus monkey); assay: as above
[3] = molecular target: Human EGFR (recombinant, soluble monomeric) (human) (UniProt P00533); assay: as above
[4] = molecular target: Human EGFR (recombinant, soluble monomeric) (human) (UniProt P00533); assay: ELISA screen of mutagenised libraries expressed as bacterial Fab fragments, human EGFR
[5] = molecular target: Mouse EGFR (recombinant, soluble monomeric) (mouse) (UniProt Q01279); assay: ELISA, antigen coated at 1 µg/mL, antibody titrated from 10 µg/mL, anti-human Fab-HRP detection
[6] = molecular target: Cynomolgus monkey EGFR (recombinant, soluble monomeric) (cynomolgus monkey); assay: as above
[7] = molecular target: Human EGFR (recombinant, soluble monomeric) (human) (UniProt P00533); assay: as above
[8] = molecular target: Cynomolgus monkey EGFR (recombinant, soluble monomeric) (cynomolgus monkey); assay: ELISA screen of mutagenised libraries expressed as bacterial Fab fragments, cynomolgus EGFR
[9] = molecular target: Mouse EGFR (recombinant, soluble monomeric) (mouse) (UniProt Q01279); assay: ELISA, coated antigen (FIG. 3A legend)
[10] = molecular target: Cynomolgus monkey EGFR (recombinant, soluble monomeric) (cynomolgus monkey); assay: ELISA, coated antigen (FIG. 3A legend)
[11] = molecular target: Human EGFR (recombinant, soluble monomeric) (human) (UniProt P00533); assay: ELISA, coated antigen (FIG. 3A legend)

Measured: binding

B1: RAA22 IgG (antibody, V domains shown)
VH: QVQLVQSGAEVKKPGSSVKVSCKASGGTFSDNDFSWVRQAPGQGLEWMGAIVAVFRTETYAQKFQDRVKITADISTRTTYMELSSLRSEDTAVYYCARRLMSAISGPGAPLLMWGQGTLVTVSS
VL: QSALTQPRSVSGSPGQSVTISCTGTSSDVGGYNYVSWYQQHPGKAPKLMIYDVSKRPSGVPDRFSGSKSGNTASLTISGLQAEDEADYYCSSYTSSDTLEIFGGGTKLTVL
notes: Bivalent parental IgG; Only the variable domains are tied to the parental IgG; also called anti-EGFR antibody clone RAA22
binds: [1] | [2] | [3] | [4] | [5] | [6] | [7] | [8] | [9] | [10] | [11]
